Results from patent publication US20170349886A1 (VEGENICS, published 2017).
Results are given in words; binding and its absence hold for the method and conditions named. Some entries that bind do so weakly or less than the wild type.

Tests used:
[1] = target: T1, Human VEGF-D (human, UniProt O43915 93-201, limits assumed); experiment: ELISA: VEGF-D (2 µg/mL) coated on the plate, VGX-300 titrated, detected with rabbit anti-human IgG-HRP and TMB
T1 sequence (looked up): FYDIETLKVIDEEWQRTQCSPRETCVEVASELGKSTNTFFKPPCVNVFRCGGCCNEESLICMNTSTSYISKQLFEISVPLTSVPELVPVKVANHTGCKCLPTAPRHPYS

[2] = target: T1, Human VEGF-D; experiment: SPR
[3] = target: T1, Human VEGF-D; experiment: ELISA (FIG. 2A and 2B)
[4] = target: T1, Human VEGF-D; experiment: ELISA; ligand coated at 2 µg/mL, trap 0 to 10 µg/mL, anti-human IgG-HRP

- binding [1]: binds
- binding [2]: binds
- binding [3]: binds
- binding [4]: binds
B1: VGX-300 (Fc fusion)
chain: YSMTPPTLNITEESHVIDTGDSLSISCRGQHPLEWAWPGAQEAPATGDKDSEDTGVVRDCEGTDARPYCKVLLLHEVHANDTGSYVCYYKYIKARIEGTTAASSYVFVRDFEQPFINKPDTLLVNRKDAMWVPCLVSIPGLNVTLRSQSSVLWPDGQEVVWDDRRGMLVSTPLLHDALYLQCETTWGDQDFLSNPFLVHITGNELYDIQLLPRKSLELLVGEKLVLNCTVWAEFNSGVTFDWDYPGKQAERGKWVPERRSQQTHTELSSILTIHNVSQHDLGSYVCKANNGIQRFRESTEVIVHE
notes: only Ig-like domains I-III were in the molecule; Produced by transient expression in CHO or HEK cells; also called Parent; VGX-300 parent; not shown: Fc region gamma chain (detected with anti-human IgG)
